Measured values as given in paper doi:10.1101/2024.12.04.626816.
Results are given in words; binding and its absence hold for the method and conditions named. Binding seen in cells or lysates may run through a third protein. A yes stands for co-enrichment or nearness to the bait. Other partners may have been found.

By UniProt entry, the sequences of proteins in these tests, tags left out.
UniProt Q92793: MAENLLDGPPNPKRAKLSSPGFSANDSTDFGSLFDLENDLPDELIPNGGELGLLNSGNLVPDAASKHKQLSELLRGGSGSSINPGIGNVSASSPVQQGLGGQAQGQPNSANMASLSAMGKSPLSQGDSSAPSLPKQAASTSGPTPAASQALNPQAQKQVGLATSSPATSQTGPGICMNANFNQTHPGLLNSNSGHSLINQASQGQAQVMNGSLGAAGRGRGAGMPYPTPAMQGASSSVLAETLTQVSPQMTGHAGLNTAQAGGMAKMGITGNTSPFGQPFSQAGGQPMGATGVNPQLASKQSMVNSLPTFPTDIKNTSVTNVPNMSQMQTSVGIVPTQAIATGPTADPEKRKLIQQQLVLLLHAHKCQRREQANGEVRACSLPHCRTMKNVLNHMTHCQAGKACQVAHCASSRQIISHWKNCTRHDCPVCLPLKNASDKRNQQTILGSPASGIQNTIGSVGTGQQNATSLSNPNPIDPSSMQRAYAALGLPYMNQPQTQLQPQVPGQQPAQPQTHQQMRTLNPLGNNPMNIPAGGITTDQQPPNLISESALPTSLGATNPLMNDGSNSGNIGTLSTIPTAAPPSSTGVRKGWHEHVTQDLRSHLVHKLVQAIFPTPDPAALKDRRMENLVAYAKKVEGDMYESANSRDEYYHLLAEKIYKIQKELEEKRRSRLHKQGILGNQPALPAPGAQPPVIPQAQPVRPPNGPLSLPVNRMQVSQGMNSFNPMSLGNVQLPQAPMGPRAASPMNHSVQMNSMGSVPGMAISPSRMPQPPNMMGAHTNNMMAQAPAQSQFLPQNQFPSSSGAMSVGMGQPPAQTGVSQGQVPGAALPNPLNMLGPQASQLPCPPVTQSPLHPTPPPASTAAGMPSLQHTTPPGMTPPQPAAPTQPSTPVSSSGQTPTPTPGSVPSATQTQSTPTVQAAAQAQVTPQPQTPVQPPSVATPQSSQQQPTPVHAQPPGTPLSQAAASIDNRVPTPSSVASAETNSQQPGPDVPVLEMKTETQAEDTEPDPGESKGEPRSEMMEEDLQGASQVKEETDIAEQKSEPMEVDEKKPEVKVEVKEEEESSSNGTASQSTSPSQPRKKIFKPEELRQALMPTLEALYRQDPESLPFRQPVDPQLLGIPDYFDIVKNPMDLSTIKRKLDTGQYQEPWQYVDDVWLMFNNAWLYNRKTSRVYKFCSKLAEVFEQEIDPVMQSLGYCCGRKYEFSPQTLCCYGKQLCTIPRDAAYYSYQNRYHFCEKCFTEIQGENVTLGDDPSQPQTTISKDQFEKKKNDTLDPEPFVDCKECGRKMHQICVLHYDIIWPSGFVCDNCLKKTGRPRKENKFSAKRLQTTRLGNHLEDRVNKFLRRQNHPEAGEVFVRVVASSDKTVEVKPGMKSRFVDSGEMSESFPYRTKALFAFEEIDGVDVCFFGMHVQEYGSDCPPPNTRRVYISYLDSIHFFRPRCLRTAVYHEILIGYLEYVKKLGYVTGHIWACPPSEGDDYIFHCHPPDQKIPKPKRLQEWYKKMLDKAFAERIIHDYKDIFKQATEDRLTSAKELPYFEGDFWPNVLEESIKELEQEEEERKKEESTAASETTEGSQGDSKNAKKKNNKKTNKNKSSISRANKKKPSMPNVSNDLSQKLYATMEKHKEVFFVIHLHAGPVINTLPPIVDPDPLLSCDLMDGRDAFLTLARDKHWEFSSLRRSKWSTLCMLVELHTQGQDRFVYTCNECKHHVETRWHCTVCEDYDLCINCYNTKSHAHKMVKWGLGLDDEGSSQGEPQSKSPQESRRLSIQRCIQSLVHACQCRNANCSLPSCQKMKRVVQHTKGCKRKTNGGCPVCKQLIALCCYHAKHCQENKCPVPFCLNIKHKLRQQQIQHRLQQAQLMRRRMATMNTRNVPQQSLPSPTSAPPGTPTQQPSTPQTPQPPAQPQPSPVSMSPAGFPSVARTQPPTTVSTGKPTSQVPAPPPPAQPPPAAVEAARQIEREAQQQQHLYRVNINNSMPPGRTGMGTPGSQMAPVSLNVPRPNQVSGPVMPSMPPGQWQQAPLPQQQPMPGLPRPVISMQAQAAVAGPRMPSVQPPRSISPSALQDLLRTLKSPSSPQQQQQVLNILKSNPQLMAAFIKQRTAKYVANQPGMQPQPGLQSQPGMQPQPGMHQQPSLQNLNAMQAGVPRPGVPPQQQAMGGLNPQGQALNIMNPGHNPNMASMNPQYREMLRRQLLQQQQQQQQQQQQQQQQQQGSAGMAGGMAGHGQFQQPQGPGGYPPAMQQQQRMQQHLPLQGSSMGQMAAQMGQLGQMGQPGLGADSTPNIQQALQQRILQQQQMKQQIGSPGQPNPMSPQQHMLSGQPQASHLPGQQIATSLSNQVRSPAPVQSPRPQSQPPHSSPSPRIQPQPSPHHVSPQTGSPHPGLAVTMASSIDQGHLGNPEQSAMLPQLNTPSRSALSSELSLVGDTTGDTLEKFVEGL

B1: NKX2-1, P43699 1-371 (protein)
chain: MSMSPKHTTPFSVSDILSPLEESYKKVGMEGGGLGAPLAAYRQGQAAPPTAAMQQHAVGHHGAVTAAYHMTAAGVPQLSHSAVGGYCNGNLGNMSELPPYQDTMRNSASGPGWYGANPDPRFPAISRFMGPASGMNMSGMGGLGSLGDVSKNMAPLPSAPRRKRRVLFSQAQVYELERRFKQQKYLSAPEREHLASMIHLTPTQVKIWFQNHRYKMKRQAKDKAAQQQLQQDSGGGGGGGGTGCPQQQQAQQQSPRRVAVPVLVKDGKPCQAGAPAPGAASLQGHAQQQAQHQAQAAQAAAAAISVGSGGAGLGAHPGHQPGSAGQSPDLAHHAASPAALQGQVSSLSHLNSSGSDYGTMSCSTLLYGRTW

Legend:
[1] = target: T1, FOXA2 (lentiviral, in LuNE cells) (human) (UniProt Q9Y261); test: affinity purification with mass spectrometry
T1 sequence: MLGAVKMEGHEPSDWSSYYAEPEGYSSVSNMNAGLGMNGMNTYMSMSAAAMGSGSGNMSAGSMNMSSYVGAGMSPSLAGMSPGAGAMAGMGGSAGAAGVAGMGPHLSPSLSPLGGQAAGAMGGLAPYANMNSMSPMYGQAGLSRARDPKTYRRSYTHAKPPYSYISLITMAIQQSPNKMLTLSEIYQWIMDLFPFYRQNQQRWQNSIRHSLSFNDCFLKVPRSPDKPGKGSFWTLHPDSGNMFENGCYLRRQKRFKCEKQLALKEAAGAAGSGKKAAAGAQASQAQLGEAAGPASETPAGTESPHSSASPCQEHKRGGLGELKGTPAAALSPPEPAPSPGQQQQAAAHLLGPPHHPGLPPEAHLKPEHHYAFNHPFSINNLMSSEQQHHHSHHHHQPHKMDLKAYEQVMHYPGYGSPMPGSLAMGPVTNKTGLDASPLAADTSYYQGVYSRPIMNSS

[2] = target: T2, FOXA2 (lentiviral, in LuNE cells) (human), Q9Y261; test: affinity purification with mass spectrometry; details: remark: other sources report otherwise
T2 chain: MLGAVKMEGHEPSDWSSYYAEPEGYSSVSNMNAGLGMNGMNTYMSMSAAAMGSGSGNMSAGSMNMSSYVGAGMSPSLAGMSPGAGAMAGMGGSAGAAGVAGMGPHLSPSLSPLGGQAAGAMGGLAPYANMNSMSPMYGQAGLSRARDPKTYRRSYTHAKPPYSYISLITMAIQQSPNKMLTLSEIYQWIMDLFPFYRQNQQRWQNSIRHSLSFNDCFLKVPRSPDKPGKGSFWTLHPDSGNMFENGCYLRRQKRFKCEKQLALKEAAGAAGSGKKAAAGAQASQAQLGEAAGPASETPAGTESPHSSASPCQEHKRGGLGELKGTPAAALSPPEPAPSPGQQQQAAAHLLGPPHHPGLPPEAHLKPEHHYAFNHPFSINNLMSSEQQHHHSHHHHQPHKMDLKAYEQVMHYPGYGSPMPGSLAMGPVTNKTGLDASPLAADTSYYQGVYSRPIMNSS

| Molecule | binding [1] | binding [2] |
| --- | --- | --- |
| CREBBP (CBP) (from UniProt Q92793 1-2442) (enzyme) | binds | – |
| B1 | – | binds |
